Assay [1] addresses FLAG-HSP90β E42A (human) (UniProt P08238). In words: condition: only cells treated with 10 μM 17-AAG for 4 h; co-IP; as a1, cells treated with 10 μM 17-AAG for 4 h before lysis.
Assay [2] shares this target. As to the kind of experiment: co-IP; anti-FLAG M2 affinity beads on 700 μg lysate (TGNET buffer: 50 mM Tris HCl pH 7.5, 5% glycerol, 100 mM NaCl, 2 mM EDTA, 0.5% Triton X-100) of transfected HEK293 cells, 2 h at 4 °C, no crosslinking, immunoblot; control cells and cells treated with GB (1.5-1.6 μM), GBA (3.2 μM), 17-AAG, celastrol or heat shock.
Another assay addresses FLAG-HSP90α E47A (human) (UniProt P07900). The description is as above.

By UniProt entry, the sequences of proteins in these tests, tags left out.
UniProt Q00613: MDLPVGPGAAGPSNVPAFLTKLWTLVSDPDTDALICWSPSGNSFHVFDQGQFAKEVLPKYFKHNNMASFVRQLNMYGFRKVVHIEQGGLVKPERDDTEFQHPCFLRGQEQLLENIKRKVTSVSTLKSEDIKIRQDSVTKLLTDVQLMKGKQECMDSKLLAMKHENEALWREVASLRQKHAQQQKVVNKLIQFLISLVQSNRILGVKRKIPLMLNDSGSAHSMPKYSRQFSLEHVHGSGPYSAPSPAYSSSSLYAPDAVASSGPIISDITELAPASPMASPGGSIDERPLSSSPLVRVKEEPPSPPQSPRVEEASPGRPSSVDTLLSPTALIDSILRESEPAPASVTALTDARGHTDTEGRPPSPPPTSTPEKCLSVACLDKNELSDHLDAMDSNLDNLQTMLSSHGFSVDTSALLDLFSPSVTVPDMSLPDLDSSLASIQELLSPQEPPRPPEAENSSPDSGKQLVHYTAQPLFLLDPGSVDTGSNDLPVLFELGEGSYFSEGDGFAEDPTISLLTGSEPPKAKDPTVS
UniProt Q03933: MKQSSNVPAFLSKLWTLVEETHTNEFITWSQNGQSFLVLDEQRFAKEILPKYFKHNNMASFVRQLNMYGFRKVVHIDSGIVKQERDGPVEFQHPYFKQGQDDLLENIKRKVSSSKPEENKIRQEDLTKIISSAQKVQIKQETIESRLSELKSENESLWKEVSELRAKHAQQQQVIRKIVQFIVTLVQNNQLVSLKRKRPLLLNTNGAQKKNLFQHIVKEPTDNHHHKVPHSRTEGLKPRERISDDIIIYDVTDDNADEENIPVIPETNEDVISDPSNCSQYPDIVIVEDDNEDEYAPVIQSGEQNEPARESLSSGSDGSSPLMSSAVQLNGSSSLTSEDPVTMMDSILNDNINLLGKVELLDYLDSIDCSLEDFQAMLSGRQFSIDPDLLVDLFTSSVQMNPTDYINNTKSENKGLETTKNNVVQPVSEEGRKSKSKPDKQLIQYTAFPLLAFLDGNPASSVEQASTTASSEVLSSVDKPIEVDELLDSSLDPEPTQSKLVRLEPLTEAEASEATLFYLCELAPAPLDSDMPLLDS

These are yes or no findings as the source states them, for the method shown. In cells and extracts the contact can be indirect. Some entries that bind do so weakly or less than the wild type.

For the substance “Myc-His-HSF1 WT (from UniProt Q00613 1-529)”, the binding entry with FLAG-HSP90β E42A (human) [1] is listed as “no binding”; with FLAG-HSP90β E42A (human) [2], “binds”.
For “endogenous HSF2 (from UniProt Q03933 1-536)”, the binding entry with FLAG-HSP90α E47A (human) and with FLAG-HSP90β E42A (human) [2] was “binds” throughout.
